Test results taken from patent publication US20120122991A1, “METHOD FOR TREATING CANCER BY INCREASING AMP-ACTIVATED KINASE ACTIVITY” (Dana-Farber Cancer Institute, Inc., priority 2003, published 2012).
For at least one compound, name, drawing or mass did not settle the structure.

How the values were obtained:
Lkb1-/- MEFs = experiment: Apoptosis (PARP cleavage) and viability (MTT) of Lkb1-/- MEFs under glucose deprivation; assay type: cell-based, mouse; conditions: glucose-free media, 20 nM rapamycin
IGFBP5 = conditions: cited from earlier work
Tsc2-/- MEFs = conditions: Tsc2-deficient MEFs, concurrent rapamycin; cited from earlier work

Question: With `CO[C@H]1C[C@@H]2CC[C@@H](C)[C@@](O)(O2)C(=O)C(=O)N2CCCC[C@H]2C(=O)O[C@H]([C@H](C)C[C@@H]2CC[C@@H](O)[C@H](OC)C2)CC(=O)[C@H](C)/C=C(\C)[C@@H](O)[C@@H](OC)C(=O)[C@H](C)C[C@H](C)/C=C/C=C/C=C/1C` [rapamycin] as the molecule, how does the “glucose-deprivation induced cell death (MTT viability)” value (Lkb1-/- MEFs; LKB1-/- MEFs, 24 h) read?
Answer: The value was “suppression”.

Question: What about the “apoptosis induced by glucose withdrawal (PARP cleavage)” value (Lkb1-/- MEFs; Lkb1-/- MEFs, 6 or 24 h) of the same molecule?
Answer: Its value is “potently inhibited”.

Question: And the “transcription of IGFBP5” value (IGFBP5)?
Answer: The value was “inhibited”.

Question: What about the “apoptosis under glucose deprivation” value (Tsc2-/- MEFs) of the same molecule?
Answer: The value was “rescued”.
